Reference: article PMC8907714, “Antimicrobial property of Pichia pastoris‐derived natto peptide against foodborne bacteria and its preservative potential to maintain pork quality during refrigerated storage” (Food Science & Nutrition, 2022)

Legend:
[1] = TVB‐N of pork during storage, Kjeldahl assay; settings: nisin 50 μg/ml or butyl paraben 100 μg/ml; day 8; pork at 4°C; triplicate
[2] = pH of pork during storage; settings: pork at 4°C for 8 days; natto peptide 30, 60, 90 μg/ml, nisin 50 μg/ml, butyl paraben 100 μg/ml
[3] = TBARS assay of pork during storage (MDA content); settings: nisin 50 μg/ml or butyl paraben 100 μg/ml; day 8; pork at 4°C; triplicate

Row | Compound | TVB‐N value [1] | pH variation of pork during storage compared with control [2] | TBARS (MDA equivalents) [3]
1 | CCCCOC(=O)c1ccc(O)cc1 [Butyl paraben] | 26.0 | inhibited the increase in pH | 0.6 mg/100 g
2 | Nisin | 28.1 | obvious increase in pH | 0.5 mg/100 g
